Assay [1] has as its target Tim29^3XFLAG (human) (UniProt Q9BSF4). Nature of the assay: cross-linking; isolated mitochondria with 0.2 mM DSP 1 hr 4°C, quenched with Tris, solubilised in 1% SDS and boiled, diluted in Triton X-100 buffer, anti-FLAG resin, cross-links cleaved in Laemmli buffer, immunoblotting.
Assay [2] has the same target. Briefly: co-IP; mitochondria solubilised in 0.5% digitonin-containing buffer, anti-FLAG resin, SDS-PAGE and immunoblotting (Figure 8A, C).
Assay [3] shares this target. Nature of the assay: co-IP; [35S]-labelled proteins imported for 60 min into mitochondria of control or Tim29^3XFLAG cells, solubilised in 0.5% digitonin-containing buffer, anti-FLAG resin, SDS-PAGE and autoradiography.
Assay [4] has the same target. Nature of the assay: native gel or EMSA; antibody shift: [35S]-hTim22 imported at 37°C into isolated mitochondria, solubilised in 1% digitonin, incubated with anti-FLAG or anti-SDHA antibodies 30 min on ice, BN-PAGE and autoradiography. In general terms: In EMSA bound probe runs differently from free probe, usually more slowly.
For assay [5] the target is unchanged. Briefly: co-IP; 0.5-1 mg mitochondria solubilised in digitonin-containing buffer, anti-FLAG resin, SDS-PAGE and immunoblotting (Figure 3C, D). For orientation: In western blotting, separated proteins are transferred to a membrane and probed.

Protein sequences, listed by entry. Tags and fused reporters are not part of them. Lines headed by an entry give the natural chain unless they say otherwise; changes in a name come on top.
UniProt Q9BSF4: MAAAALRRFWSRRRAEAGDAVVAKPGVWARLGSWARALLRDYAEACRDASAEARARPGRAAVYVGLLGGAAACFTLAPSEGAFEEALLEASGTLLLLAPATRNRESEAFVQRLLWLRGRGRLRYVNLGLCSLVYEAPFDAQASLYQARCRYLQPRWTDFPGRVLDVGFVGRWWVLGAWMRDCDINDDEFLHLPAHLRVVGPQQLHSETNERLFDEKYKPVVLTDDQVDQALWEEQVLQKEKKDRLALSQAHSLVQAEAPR

Results are given in words; binding and its absence hold for the method and conditions named. Binding calls can cover weak binding; strength is not graded here. For some assays here: Binding seen in cells or lysates may run through a third protein.

B1: hTom40 (protein, UniProt O96008 1-361)
chain: MGNVLAASSPPAGPPPPPAPALVGLPPPPPSPPGFTLPPLGGSLGAGTSTSRSSERTPGAATASASGAAEDGACGCLPNPGTFEECHRKCKELFPIQMEGVKLTVNKGLSNHFQVNHTVALSTIGESNYHFGVTYVGTKQLSPTEAFPVLVGDMDNSGSLNAQVIHQLGPGLRSKMAIQTQQSKFVNWQVDGEYRGSDFTAAVTLGNPDVLVGSGILVAHYLQSITPCLALGGELVYHRRPGEEGTVMSLAGKYTLNNWLATVTLGQAGMHATYYHKASDQLQVGVEFEASTRMQDTSVSFGYQLDLPKANLLFKGSVDSNWIVGATLEKKLPPLPLTLALGAFLNHRKNKFQCGFGLTIG
As to B1, the binding entry with Tim29^3XFLAG (human) [1] and with Tim29^3XFLAG (human) [2] was “binds” each time.

B2: [^35S]-hTom40 (protein, UniProt O96008 1-361)
chain: B1 chain
modifications: [35S]-methionine/cysteine label
As for B2, in the assay with Tim29^3XFLAG (human) [3], the binding result is “binds”.

B3: [^35S]-hTim22 (protein, UniProt Q9Y584 1-194)
chain: MAAAAPNAGGSAPETAGSAEAPLQYSLLLQYLVGDKRQPRLLEPGSLGGIPSPAKSEEQKMIEKAMESCAFKAALACVGGFVLGGAFGVFTAGIDTNVGFDPKDPYRTPTAKEVLKDMGQRGMSYAKNFAIVGAMFSCTECLIESYRGTSDWKNSVISGCITGGAIGFRAGLKAGAIGCGGFAAFSAAIDYYLR
modifications: [35S]-methionine/cysteine label
For B3, the binding entry in the assay with Tim29^3XFLAG (human) [4] was “binds”.

B4: hTim22 (protein, UniProt Q9Y584 1-194)
chain: B3 chain
As to B4, the binding entry in the assay with Tim29^3XFLAG (human) [5] is on record as “binds”.

B5: hTim9 (protein, UniProt Q9Y5J7 1-89)
chain: MAAQIPESDQIKQFKEFLGTYNKLTETCFLDCVKDFTTREVKPEETTCSEHCLQKYLKMTQRISMRFQEYHIQQNEALAAKAGLLGQPR
Take B5: the binding entry with Tim29^3XFLAG (human) [1] and with Tim29^3XFLAG (human) [2] was “binds” in each case.

B6: [^35S]-hTim9 (protein, UniProt Q9Y5J7 1-89)
chain: B5 chain
modifications: [35S]-methionine/cysteine label
Regarding B6, in the assay with Tim29^3XFLAG (human) [3], the binding entry is recorded as “binds”.

The record behind these values is paper PMC5016092.
